Test results from paper PMC6805484.
Where a chain is given by its changes, count along the chain named. No constants are given. Whether binding was seen depends on the method and setting. Binding seen in cells or lysates may run through a third protein. Some binding calls cover weakened binding; strength is not graded here. Where a sequence is shown, tags or fusion partners need not be part of it.

Chains of the proteins cited; added tags and fusions are not shown.
UniProt P11940: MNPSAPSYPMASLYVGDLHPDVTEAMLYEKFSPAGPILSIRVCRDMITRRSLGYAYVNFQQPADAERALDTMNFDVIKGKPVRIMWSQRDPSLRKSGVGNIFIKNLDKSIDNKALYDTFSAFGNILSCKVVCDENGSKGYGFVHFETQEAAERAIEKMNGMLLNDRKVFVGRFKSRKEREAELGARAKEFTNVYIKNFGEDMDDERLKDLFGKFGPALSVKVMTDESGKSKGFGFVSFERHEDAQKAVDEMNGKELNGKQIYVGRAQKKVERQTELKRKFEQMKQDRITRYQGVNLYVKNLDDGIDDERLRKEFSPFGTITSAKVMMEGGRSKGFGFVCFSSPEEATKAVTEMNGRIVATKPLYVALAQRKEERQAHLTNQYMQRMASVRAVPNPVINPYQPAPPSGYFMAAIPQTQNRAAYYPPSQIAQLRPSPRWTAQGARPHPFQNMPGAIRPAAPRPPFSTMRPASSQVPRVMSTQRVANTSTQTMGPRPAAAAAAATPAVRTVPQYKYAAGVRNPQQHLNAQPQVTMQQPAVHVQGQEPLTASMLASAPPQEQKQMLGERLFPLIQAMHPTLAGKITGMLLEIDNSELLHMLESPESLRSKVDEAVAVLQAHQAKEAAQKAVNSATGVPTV

Key:
[1] = biological target: T1, GFP-MKRN1^RINGmut (H307E, ligase-dead) (human) (UniProt Q9UHC7); assay: co-IP; GFP-trap agarose beads with cleared lysates of HEK293T cells transiently expressing a GFP-tagged bait or GFP (empty vector); mRIPA buffer, 1 h at 4 °C, five washes; Western blot for the endogenous partner
T1 sequence: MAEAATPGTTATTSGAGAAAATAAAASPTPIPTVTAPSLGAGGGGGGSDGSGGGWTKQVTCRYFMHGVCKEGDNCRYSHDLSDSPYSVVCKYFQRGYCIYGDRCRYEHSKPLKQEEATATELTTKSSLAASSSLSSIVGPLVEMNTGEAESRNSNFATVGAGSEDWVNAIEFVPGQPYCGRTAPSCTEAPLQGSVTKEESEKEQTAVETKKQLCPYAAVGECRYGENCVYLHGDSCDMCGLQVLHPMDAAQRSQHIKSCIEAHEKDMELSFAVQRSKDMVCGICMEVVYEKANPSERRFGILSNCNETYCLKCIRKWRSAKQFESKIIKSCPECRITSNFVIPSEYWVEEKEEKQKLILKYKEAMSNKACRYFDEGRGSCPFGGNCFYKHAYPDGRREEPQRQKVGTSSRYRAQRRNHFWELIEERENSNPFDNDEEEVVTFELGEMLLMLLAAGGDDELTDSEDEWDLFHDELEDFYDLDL

[2] = biological target: T2, GFP-MKRN1^wt (Makorin Ring Finger Protein 1, wild type, N-terminally GFP-tagged) (human) (UniProt Q9UHC7); assay: as above
T2 sequence: T1 sequence with E307H

- binding [1]: binds
- binding [2]: binds
Substance: cytoplasmic poly(A)-binding protein PABPC1 (endogenous) (from UniProt P11940 1-636)
